Consider one substance from PMC11381323.

Protein sequences, listed by entry. Tags and fused reporters are not part of them. Residues count along the entry.
UniProt P02545, residues 1-646: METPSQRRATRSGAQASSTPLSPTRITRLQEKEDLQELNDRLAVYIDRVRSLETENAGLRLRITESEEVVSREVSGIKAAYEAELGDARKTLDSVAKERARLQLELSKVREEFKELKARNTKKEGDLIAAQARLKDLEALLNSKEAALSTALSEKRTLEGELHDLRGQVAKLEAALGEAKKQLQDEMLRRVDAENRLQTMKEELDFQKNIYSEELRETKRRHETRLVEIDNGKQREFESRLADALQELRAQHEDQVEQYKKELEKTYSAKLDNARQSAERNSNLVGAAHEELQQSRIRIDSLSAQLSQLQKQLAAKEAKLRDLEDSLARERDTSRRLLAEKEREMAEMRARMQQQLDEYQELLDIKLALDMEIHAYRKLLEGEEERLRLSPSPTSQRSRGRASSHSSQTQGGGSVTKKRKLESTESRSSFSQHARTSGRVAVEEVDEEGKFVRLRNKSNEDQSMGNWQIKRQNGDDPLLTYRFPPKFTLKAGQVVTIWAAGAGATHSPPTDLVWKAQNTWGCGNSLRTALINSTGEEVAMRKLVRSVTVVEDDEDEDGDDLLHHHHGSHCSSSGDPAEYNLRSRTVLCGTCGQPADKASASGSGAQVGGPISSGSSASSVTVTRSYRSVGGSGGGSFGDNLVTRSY
UniProt Q9UKV8: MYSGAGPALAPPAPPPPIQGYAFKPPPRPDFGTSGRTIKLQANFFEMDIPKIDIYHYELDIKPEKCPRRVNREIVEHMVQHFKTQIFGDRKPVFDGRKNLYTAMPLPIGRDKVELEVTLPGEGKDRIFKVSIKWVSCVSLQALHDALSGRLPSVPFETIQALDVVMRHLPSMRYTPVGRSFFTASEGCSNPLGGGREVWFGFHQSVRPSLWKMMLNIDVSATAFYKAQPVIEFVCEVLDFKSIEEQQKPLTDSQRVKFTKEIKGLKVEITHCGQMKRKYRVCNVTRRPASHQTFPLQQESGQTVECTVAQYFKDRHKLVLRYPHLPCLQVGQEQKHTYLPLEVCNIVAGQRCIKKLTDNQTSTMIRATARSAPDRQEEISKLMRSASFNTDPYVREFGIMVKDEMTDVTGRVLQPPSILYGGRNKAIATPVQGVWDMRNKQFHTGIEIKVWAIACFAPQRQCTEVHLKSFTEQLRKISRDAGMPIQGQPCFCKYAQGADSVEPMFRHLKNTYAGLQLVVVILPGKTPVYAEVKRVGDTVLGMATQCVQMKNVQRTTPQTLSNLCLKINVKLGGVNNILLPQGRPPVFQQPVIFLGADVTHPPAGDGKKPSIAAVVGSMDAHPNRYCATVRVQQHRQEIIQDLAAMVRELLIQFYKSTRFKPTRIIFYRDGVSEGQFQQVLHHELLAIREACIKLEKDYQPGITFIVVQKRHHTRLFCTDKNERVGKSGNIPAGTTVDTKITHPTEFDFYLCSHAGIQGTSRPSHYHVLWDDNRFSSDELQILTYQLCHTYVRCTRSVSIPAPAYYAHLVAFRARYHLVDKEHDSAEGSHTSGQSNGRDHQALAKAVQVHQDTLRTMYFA

This assay addresses Lamin A (human (endogenous in HeLa)) (UniProt P02545). Kind of assay: co-IP; HeLa cells; shown in Supplemental Figure S5C; bait and conditions not given.

These are yes or no findings as the source states them, for the method shown. Binding seen in cells or lysates may run through a third protein. Some results given as binding are weak or reduced against the parent protein; the word gives no strength.

As for “Argonaute 2 (AGO2) (from UniProt Q9UKV8 1-859)”, the binding result is “binds”.
